Measurements: article PMC4125160, “Neurotoxicity and Mode of Action of N, N-Diethyl-Meta-Toluamide (DEET)” (PLoS ONE, 2014)

System: housefly larval central nervous system
Test: Neurophysiological recordings of CNS nerve discharge in housefly larvae
Conditions: Musca domestica; inhibition of nerve discharge; read-out: EC50, inhibitory effect on the CNS
Description: Neurophysiological recordings were performed on the central and peripheral nervous systems of larval Musca domestica. Glass pipette electrodes were pulled from borosilicate glass capillaries on a P-1000 Flaming/Brown micropipette puller (Sutter Instrument, Novato CA, USA). For CNS recordings, it was first excised from the larvae and placed in a separate dish with physiological saline (200 µL) containing: 157 mM NaCl, 3 mM KCl, 2 mM CaCl2, and 4 mM HEPES, pH = 7.25. The CNS was manually transected posterior to the cerebral lobes to disrupt the blood-brain barrier and enhance chemical penetration. Any convenient peripheral nerve trunks were pulled into a recording suction electrode. […] Each concentration was recorded for 3–5 min prior to the addition of the next drug concentration. Mean spike frequencies for each concentration were used to construct concentration-response curves to determine EC50 values (EC50 = concentration of drug to elicit half maximal response, positive Hill slope), and were calculated by nonlinear regression (variable slope) using GraphPad Prism (GraphPad Software, San Diego, CA, USA) in a manner similar to that for AChE inhibition. […]

CCN(CC)CC(=O)Nc1c(C)cccc1C [Lidocaine, lidocaine] showed an EC50 of 340 µM.
